Assay results published in patent US20150045610A1, “METHOD OF MODIFYING SPERMATOGENESIS, SPERMIOGENESIS AND/OR FERTILITY IN MAMMALS” (Monell Chemical Senses Center, priority 2012, published 2015).
At least one compound was matched to its structure with a doubt left.

Chains of the proteins cited; added tags and fusions are not shown. Lines headed by an entry give the natural chain unless they say otherwise; changes in a name come on top.
UniProt Q7RTX0: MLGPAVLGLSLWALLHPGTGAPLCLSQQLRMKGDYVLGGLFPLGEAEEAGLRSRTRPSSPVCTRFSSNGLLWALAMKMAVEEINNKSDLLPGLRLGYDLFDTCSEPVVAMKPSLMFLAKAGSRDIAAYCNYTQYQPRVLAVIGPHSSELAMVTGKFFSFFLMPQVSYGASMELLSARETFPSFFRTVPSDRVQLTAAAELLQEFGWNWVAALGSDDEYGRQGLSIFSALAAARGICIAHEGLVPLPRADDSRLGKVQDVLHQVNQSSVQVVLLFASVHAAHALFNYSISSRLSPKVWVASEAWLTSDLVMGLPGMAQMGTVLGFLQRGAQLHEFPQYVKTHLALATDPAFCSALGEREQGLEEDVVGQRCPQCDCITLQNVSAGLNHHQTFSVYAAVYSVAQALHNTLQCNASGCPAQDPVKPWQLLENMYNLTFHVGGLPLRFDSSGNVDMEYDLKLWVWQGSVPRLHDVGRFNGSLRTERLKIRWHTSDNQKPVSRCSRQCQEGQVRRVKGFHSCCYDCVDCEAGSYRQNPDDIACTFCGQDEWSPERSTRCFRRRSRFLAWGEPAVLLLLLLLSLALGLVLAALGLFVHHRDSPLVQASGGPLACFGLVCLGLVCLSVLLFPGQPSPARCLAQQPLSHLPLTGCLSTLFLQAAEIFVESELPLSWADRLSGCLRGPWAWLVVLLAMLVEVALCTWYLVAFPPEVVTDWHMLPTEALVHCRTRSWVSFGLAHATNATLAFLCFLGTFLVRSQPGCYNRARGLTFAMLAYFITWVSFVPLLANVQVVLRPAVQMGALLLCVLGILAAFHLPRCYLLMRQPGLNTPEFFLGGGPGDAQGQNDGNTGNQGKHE

Target: T1, humanized mhT1R3 (Homo sapiens, UniProt Q7RTX0, A109T/A120V/A176D/A197V/A198V/A228S/A231N/A248T/A280V/A282S/A302S/A412V/A417V/A46T/A537T/C375D/D124S/D249S/D250G/D364H/D419E/D470T/D491G/D88A/DEL352-352/DEL488-489/E172D/E199T/E203N/E217D/E356N/E45S/E481Q/E505D/E525K/E545Q/F540P/F555L/G168S/G205S/G311T/G314N/G355L/G360D/G414H/G438R/G439D/G463S/G50T/G542N/H261R/H278R/H281Y/H332P/I485M/I536F/INS376MLQNLSSG/K32Q/K339E/K422L/K494V/K86G/L173R/L245Q/L272V/L29F/L354S/L385Q/L433M/L458M/L483S/L71F/L74M/M151L/M315I/M318V/M31A/N285S/N386L/N532H/N68L/P112S/P246H/P335S/P416H/P420H/P441T/P60I/Q221E/Q257L/Q317R/Q330L/Q336H/Q359L/Q372R/Q418S/Q504K/Q531K/R123Q/R247D/R252Q/R291G/R30K/R357A/R443Q/R467V/R473T/R479Q/R482Q/R486Y/R498Q/R52N/R550K/R553A/R556P/R560K/R56Q/S251Q/S267K/S289H/S290H/S392A/S446A/S447E/S464P/S477T/S490P/S53Q/S559P/S58N/S67P/T195Q/T346A/T377L/T390I/T434S/T480L/T63N/V152I/V277A/V366M/V36I/V381L/V393T/V437A/V465T/V61P/W72L)
T1 construct: the extracellular domain is of mouse origin and the transmembrane and intracellular domains of human origin; mouse T1R3 extracellular domain (fusion partner replacing the human extracellular domain); expressed in transfected cells; host or cells: transgenic mice (Line 7, 9, 7c) on T1R3-null background; transgene under 13 kb T1R3 promoter, followed by IRES-eGFP
T1 sequence (Q7RTX0 with tags, fused parts or gaps L29F/R30K/M31A/K32Q/V36I/E45S/A46T/G50T/R52N/S53Q/R56Q/S58N/P60I/V61P/T63N/S67P/N68L/L71F/W72L/L74M/K86G/D88A/A109T/P112S/A120V/R123Q/D124S/M151L/V152I/G168S/E172D/L173R/A176D/T195Q/A197V/A198V/E199T/E203N/G205S/E217D/Q221E/A228S/A231N/L245Q/P246H/R247D/A248T/D249S/D250G/S251Q/R252Q/Q257L/H261R/S267K/L272V/V277A/H278R/A280V/H281Y/A282S/N285S/S289H/S290H/R291G/A302S/G311T/G314N/M315I/Q317R/M318V/Q330L/H332P/P335S/Q336H/K339E/T346A/DEL352-352/L354S/G355L/E356N/R357A/Q359L/G360D/D364H/V366M/Q372R/C375D/INS376MLQNLSSG/T377L/V381L/L385Q/N386L/T390I/S392A/V393T/A412V/G414H/P416H/A417V/Q418S/D419E/P420H/K422L/L433M/T434S/V437A/G438R/G439D/P441T/R443Q/S446A/S447E/L458M/G463S/S464P/V465T/R467V/D470T/R473T/S477T/R479Q/T480L/E481Q/R482Q/L483S/I485M/R486Y/DEL488-489/S490P/D491G/K494V/R498Q/Q504K/E505D/E525K/Q531K/N532H/I536F/A537T/F540P/G542N/E545Q/R550K/R553A/F555L/R556P/S559P/R560K limits assumed): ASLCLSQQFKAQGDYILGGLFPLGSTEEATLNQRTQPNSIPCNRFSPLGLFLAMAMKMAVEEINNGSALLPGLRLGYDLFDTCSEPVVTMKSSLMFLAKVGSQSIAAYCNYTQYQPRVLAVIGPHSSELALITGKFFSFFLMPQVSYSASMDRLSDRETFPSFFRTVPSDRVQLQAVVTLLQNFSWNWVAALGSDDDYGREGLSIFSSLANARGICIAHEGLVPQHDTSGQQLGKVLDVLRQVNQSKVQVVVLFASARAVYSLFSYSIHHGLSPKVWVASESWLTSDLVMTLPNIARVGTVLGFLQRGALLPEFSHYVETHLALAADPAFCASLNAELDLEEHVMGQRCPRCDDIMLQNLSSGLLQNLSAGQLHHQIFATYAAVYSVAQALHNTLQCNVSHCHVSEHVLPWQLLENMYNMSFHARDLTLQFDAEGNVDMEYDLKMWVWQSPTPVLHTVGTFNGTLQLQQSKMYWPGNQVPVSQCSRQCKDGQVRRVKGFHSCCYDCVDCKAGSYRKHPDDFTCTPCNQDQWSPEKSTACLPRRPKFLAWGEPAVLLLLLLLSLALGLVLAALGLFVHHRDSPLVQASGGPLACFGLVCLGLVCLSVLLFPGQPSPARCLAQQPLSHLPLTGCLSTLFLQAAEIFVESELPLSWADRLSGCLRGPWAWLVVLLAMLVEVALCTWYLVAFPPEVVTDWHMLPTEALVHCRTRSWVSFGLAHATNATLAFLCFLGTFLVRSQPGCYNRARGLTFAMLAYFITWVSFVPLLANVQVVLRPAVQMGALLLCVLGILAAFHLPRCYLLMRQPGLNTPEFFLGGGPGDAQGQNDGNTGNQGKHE
T1 sequence (Q925I4 20-843 partner): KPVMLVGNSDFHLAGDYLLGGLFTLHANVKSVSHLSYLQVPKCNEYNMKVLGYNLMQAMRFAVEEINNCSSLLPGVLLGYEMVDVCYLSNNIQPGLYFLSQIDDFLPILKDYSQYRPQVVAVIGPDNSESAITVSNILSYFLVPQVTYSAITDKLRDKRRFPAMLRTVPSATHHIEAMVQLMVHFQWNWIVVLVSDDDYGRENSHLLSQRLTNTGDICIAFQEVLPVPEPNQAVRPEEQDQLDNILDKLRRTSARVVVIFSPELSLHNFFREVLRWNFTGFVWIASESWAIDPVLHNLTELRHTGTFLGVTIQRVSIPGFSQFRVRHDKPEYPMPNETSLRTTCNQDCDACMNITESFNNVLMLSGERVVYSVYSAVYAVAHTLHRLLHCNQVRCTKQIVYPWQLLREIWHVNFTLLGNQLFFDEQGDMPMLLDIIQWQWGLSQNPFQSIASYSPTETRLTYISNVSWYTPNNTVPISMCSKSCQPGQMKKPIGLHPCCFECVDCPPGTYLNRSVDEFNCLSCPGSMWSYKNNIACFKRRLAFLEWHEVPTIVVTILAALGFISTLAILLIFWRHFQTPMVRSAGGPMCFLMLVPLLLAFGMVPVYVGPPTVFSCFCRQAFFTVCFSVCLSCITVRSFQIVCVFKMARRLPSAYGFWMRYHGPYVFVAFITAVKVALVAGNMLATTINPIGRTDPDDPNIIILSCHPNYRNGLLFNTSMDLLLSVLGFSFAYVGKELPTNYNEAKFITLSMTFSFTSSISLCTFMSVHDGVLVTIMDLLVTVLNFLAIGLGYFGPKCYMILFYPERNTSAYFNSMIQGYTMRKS
Experiment: sweet taste preference of transgenic mice expressing humanized T1R3
Conditions: mouse, in vivo
Experimental: We used the chimeric mhT1R3 receptor to produce conventional transgenic animals. The DNA construct was injected into a genetically engineered mouse line that lacks endogenous T1R3 (T1R3KO or T1R3-null). […] We call these mice Line7.
For further crosses, we used the line 7 that has fewer copies of the transgene.
Such compounds may be produced normally in organs (e.g. in testis) or chemically synthesized.

Compound: CCOC(=O)C(C)(C)Oc1ccc(Cl)cc1 [clofibrate]
- effect on taste: no effect on taste
